These are yes or no findings as the source states them, for the method shown. Some binding calls cover weakened binding; strength is not graded here.

Chains of the proteins cited; added tags and fusions are not shown. Lines headed by an entry give the natural chain unless they say otherwise; changes in a name come on top. A line that says so, or that is headed by a name, gives the form on record, which may keep a tag or linker. Residues count along the entry.
rhesus PD-L1-Fc protein (F6PJN1, form named): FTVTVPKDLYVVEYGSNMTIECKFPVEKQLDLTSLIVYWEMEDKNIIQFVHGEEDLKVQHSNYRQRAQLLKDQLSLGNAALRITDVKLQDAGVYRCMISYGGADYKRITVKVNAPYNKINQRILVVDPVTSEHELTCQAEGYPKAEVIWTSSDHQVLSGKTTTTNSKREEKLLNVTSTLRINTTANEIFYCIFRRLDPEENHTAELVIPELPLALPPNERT
UniProt Q9NZQ7, residues 19-239: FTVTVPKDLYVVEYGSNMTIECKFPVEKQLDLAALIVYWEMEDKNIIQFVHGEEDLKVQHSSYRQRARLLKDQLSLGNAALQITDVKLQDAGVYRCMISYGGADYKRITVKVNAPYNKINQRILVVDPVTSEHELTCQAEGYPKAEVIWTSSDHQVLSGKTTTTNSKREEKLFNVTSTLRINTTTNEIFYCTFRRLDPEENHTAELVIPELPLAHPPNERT

From patent US20180346573A1 (I MAB, published 2018) come the findings set out here.

In assay [1] the target is rhesus PD-L1-Fc protein (rhesus) (UniProt F6PJN1). The assay can be described thus: ELISA, plate coated with rhesus PD-L1-Fc.
Assay [2] shares this target. The experiment in a line: ELISA (FIG. 8 legend). For orientation: An ELISA detects its analyte on a solid surface through an enzyme-linked reagent.
Assay [3] addresses PD-L1 (antigen of the Octet Red 96 affinity ranking; construct not named) (human) (UniProt Q9NZQ7). The assay can be described thus: Octet Red 96 affinity ranking.

B1: Hu1210-41 (antibody, V domains shown)
VH: EVQLVESGGGLVQPGGSLRLSCAASGFTFSSYDMSWVRQAPGKSLEWVATISDAGGYIYYSDSVKGRFTISRDNAKNSLYLQMNSLRDEDTAVYICAREFGKRYALDYWGQGTTVTVSS
VL: DIQMTQSPSSLSASVGDRVTITCKASQDVTPAVAWYQQKPGKAPKLLIYSTSSRYTGVPSRFSGSGSGTDFTFTISSLQPEDIATYYCQQHYTTPLTFGQGTKLEIK
As to B1, the binding entry in assay [1] and in assay [2] was “binds” throughout.

B2: Hu1210-8 (antibody, V domains shown)
VH: EVQLVESGGGLVKPGGSLRLSCAASGFTFSSYDMSWVRQAPGKGLEWVATISDGGGYIYYSDSVKGRFTISRDNAKNSLYLQMNSLRAEDTAVYYCAREFGKRYALDYWGQGTTVTVSS
VL: DIQMTQSPSSLSASVGDRVTITCKASQDVTPAVAWYQQKPGKSPKLLIYSTSSRYTGVPSRFSGSGSGTDFTFTISSLQPEDIATYYCQQHYTTPLTFGQGTKLEIK
With B2, the binding result in assay [3] was “binds”.

B3: Hu1210-1 (antibody, V domains shown)
VH: EVQLVESGGGLVKPGGSLRLSCAASGFTFSSYDMSWVRQAPGKGLEWVSTISDGGGYIYYSDSVKGRFTISRDNAKNSLYLQMNSLRAEDTAVYYCAREFGKRYALDYWGQGTTVTVSS
VL: DIQMTQSPSSLSASVGDRVTITCKASQDVTPAVAWYQQKPGKAPKLLIYSTSSRYTGVPSRFSGSGSGTDFTFTISSLQPEDIATYYCQQHYTTPLTFGQGTKLEIK
For B3, in assay [3], the binding entry was “binds”.

B4: Hu1210-22 (antibody, V domains shown)
VH: EVQLVESGGGLVQPGGSLRLSCAASGFTFSSYDMSWVRQAPGKSLEWVATISDGGGYIYYSDSVKGRFTISRDNAKNSLYLQMNSLRDEDTAVYICAREFGKRYALDYWGQGTTVTVSS
VL: DIQMTQSPSSLSASVGDRVTITCKASQDVTPAVAWYQQKPGKSPKLLIYSTSSRYTGVPSRFSGSGSGTDFTFTISSLQPEDIATYYCQQHYTTPLTFGQGTKLEIK
With B4, in assay [3], the binding result is given as “binds”.

B5: Hu1210-14 (antibody, V domains shown)
VH: EVQLLESGGGLVQPGGSLRLSCAASGFTFSSYDMSWVRQAPGKSLEWVATISDGGGYIYYSDSVKGRFTISRDNSKNTLYLQMNSLRAEDTAVYICAREFGKRYALDYWGQGTTVTVSS
VL: DIQMTQSPSSLSASVGDRVTITCKASQDVTPAVAWYQQKPGKAPKLLIYSTSSRYTGVPSRFSGSGSGTDFTFTISSLQPEDIATYYCQQHYTTPLTFGQGTKLEIK
B5: in assay [3], the binding entry is given as “binds”.

B6: Hu1210-3 (antibody, V domains shown)
VH: EVQLVESGGGLVKPGGSLRLSCAASGFTFSSYDMSWVRQAPGKSLEWVATISDGGGYIYYSDSVKGRFTISRDNAKNSLYLQMNSLRAEDTAVYICAREFGKRYALDYWGQGTTVTVSS
VL: DIQMTQSPSSLSASVGDRVTITCKASQDVTPAVAWYQQKPGKAPKLLIYSTSSRYTGVPSRFSGSGSGTDFTFTISSLQPEDIATYYCQQHYTTPLTFGQGTKLEIK
notes: Not the mouse mAb HL1210-3
Regarding B6, in assay [3], the binding result is “binds”.
